In patent US20220401448A1, “Pharmaceutical Compositions Comprising an Inhibitor of a Histon-deacetylase (HDACi) and an Agonist of Toll-like-receptor 7 and/or 8 (TLR7 and/or TLR8) and Their Use in the Treatment of Cancer” (priority 2019, published 2022):

Assays:
[1] = tested on: OvCar3 ovarian cancer cell line; assay: Individual effects (IC50), OvCar3; assay type: cell-based; details: Homo sapiens, OVCAR-3; OvCar3, single drug
From the text: This example compares the individual effects of HDACis and agonsist of TLR7/8 of the initially tested cell line SKOV3 (see Example 3) with an additional cell line (OvCar 3, see FIG. 17) and primary ovarian cancer cell lines from heavily pretreated patients (OvCa2810, see FIG. 19; and OvCa 236, see FIG. 21).

[2] = tested on: SKOV3 ovarian cancer cell line; assay: MTT proliferation assay, single drugs, SKOV3; assay type: cell-based; details: Homo sapiens, SK-OV-3; SKOV3, single drug

O=C(CCCCCCC(=O)Nc1ccccc1)NO [Vorinostat, vorinostat]
IC50 [1]: 3000 nM
IC50 [2]: 1100 nM
